Measurements published in paper PMC12859043.
These are yes or no findings as the source states them, for the method shown. Binding seen in cells or lysates may run through a third protein. Some entries that bind do so weakly or less than the wild type. Tags and fused reporters may be left off the sequences shown. Values belong to the binder of their own block, whether it stands above or below them.

Sequences of proteins named here, by UniProt entry; tags and fusion partners are left off. Residues count along the entry.
UniProt Q68DV7, residues 24-783: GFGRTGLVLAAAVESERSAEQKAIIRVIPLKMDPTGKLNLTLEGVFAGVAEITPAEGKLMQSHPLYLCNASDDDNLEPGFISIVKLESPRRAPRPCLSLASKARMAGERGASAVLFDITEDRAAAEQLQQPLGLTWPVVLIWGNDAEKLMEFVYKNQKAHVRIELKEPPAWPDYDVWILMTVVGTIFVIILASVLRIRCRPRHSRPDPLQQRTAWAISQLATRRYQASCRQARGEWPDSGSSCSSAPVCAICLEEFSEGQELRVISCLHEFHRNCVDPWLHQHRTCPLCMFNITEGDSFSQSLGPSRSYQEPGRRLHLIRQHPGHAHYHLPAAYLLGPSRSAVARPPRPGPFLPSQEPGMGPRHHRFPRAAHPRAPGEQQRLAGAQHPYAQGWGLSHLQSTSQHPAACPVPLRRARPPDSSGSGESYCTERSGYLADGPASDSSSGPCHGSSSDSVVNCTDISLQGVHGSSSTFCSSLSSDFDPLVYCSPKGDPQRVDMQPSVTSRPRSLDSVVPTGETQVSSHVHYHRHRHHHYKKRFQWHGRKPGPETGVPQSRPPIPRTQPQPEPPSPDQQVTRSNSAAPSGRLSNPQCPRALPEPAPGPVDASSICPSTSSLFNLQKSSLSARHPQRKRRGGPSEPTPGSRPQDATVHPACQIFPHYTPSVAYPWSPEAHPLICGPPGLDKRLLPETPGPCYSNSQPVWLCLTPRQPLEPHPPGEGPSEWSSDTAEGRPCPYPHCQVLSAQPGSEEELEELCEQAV

Tests used:
[1] = target: T1, V5-tagged PRICKLE1 (human) (UniProt Q96MT3); test: co-IP; anti-V5 IP of overexpressed V5-PRICKLE1-3 from HEK293 lysate (50 mM Tris pH 7.6, 200 mM NaCl, 1 mM EDTA, 0.5% NP40); Western blot for VANGL1-myc, VANGL2-HA or endogenous DVL2/DVL3
T1 sequence: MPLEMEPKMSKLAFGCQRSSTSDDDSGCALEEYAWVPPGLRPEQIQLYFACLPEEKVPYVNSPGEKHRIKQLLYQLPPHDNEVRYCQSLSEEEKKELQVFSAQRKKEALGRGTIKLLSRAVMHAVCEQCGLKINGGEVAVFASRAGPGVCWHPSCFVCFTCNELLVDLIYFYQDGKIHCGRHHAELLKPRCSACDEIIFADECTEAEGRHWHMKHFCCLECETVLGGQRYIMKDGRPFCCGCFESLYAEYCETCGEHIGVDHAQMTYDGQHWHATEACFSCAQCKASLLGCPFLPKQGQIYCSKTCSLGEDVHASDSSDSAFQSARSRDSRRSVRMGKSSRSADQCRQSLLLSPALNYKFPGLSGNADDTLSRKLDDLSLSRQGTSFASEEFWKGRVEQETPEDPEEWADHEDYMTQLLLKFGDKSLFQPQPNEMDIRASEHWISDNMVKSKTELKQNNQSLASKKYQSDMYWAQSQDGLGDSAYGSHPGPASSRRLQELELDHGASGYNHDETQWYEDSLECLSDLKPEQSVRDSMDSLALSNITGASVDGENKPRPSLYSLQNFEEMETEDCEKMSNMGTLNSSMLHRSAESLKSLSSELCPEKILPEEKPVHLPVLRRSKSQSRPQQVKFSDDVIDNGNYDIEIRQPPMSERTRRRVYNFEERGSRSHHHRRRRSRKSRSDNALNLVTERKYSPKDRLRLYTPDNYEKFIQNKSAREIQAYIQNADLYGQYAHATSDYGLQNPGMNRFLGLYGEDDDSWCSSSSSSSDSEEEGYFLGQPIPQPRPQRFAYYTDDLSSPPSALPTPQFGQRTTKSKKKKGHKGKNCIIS

[2] = target: T2, V5-tagged PRICKLE3 (human) (UniProt O43900); test: as above
T2 sequence: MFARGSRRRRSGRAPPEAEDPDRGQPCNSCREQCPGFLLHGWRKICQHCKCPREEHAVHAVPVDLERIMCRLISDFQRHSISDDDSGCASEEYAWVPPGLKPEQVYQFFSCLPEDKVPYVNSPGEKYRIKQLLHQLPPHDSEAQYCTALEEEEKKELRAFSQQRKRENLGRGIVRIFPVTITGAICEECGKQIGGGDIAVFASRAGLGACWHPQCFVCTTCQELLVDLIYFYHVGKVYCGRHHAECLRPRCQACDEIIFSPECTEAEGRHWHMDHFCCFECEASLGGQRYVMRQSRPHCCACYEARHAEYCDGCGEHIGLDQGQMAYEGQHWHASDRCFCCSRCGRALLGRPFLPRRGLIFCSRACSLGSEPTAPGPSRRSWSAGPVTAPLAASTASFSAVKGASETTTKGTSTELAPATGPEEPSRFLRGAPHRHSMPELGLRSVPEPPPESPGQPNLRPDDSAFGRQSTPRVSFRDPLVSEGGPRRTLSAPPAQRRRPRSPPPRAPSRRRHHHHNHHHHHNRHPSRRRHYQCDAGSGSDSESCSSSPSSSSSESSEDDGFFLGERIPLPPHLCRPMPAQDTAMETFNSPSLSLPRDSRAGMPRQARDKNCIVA

[3] = target: T3, V5-tagged PRICKLE2 (human) (UniProt Q7Z3G6); test: as above
T3 sequence: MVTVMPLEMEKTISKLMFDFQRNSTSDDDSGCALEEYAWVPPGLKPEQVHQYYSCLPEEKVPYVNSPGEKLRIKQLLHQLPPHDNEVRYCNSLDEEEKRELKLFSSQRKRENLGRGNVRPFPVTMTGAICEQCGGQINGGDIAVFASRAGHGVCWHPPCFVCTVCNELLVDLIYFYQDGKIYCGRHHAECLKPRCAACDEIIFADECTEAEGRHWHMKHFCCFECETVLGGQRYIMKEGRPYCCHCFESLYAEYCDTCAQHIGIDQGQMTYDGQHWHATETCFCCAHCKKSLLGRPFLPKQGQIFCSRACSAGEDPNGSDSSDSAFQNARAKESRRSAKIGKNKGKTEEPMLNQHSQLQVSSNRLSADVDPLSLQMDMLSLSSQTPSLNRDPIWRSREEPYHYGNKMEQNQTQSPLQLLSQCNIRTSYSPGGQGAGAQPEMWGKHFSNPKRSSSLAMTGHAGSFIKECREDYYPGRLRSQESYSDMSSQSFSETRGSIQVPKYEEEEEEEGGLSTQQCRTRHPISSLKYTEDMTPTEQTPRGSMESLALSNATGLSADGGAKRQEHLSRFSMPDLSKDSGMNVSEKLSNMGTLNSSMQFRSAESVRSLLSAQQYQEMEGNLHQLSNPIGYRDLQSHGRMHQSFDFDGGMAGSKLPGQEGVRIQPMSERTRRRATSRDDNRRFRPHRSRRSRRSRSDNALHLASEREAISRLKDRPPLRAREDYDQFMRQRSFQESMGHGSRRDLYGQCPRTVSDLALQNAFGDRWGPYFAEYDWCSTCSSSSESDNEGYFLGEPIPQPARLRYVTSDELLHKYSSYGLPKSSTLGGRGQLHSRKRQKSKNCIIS

[4] = target: T4, HA-tagged PRICKLE3 (human) (UniProt O43900); test: co-IP; anti-HA IP (IgG control) from HEK T-REx 293 PRICKLE3 or PRICKLE1 TetON cells induced overnight with doxycycline; Western blot for endogenous proteins
T4 sequence: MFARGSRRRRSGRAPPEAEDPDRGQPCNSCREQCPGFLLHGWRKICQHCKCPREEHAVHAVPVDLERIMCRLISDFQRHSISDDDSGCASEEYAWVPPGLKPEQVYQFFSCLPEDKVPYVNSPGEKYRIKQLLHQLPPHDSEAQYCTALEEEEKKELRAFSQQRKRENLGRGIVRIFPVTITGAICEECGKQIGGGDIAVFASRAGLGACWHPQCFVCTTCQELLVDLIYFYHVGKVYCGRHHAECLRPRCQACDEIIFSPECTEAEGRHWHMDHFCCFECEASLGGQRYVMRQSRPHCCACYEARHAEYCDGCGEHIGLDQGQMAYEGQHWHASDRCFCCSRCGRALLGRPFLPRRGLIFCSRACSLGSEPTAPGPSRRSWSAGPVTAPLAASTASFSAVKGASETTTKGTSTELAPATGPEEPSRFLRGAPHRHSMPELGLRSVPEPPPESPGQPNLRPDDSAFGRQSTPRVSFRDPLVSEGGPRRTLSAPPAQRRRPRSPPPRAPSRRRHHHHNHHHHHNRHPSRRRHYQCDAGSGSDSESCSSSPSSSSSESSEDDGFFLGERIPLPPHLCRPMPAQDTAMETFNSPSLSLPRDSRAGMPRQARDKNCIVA

[5] = target: T5, HA-tagged PRICKLE1 (human) (UniProt Q96MT3); test: as above
T5 sequence: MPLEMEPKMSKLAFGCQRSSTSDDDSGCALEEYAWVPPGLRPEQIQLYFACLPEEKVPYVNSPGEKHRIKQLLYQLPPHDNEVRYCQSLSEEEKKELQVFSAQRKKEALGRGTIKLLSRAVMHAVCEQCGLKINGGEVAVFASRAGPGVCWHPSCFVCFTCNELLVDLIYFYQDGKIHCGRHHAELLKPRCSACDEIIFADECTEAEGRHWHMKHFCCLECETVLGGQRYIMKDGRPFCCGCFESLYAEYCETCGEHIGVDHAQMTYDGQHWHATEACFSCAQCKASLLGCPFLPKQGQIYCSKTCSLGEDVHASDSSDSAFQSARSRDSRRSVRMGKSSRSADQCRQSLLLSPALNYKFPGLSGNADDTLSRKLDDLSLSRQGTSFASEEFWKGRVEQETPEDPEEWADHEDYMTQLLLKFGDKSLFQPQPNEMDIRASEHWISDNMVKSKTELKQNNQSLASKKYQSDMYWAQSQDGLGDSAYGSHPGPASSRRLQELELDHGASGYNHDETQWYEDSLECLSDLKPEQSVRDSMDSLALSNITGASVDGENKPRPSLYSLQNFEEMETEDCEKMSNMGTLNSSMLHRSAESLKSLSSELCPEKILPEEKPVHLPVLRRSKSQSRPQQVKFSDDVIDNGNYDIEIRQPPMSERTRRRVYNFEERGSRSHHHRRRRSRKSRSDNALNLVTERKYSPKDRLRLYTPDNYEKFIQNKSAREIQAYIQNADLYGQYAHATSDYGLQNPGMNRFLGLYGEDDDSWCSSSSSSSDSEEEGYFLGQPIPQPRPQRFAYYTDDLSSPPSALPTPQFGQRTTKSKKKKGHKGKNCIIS

RNF43-FLAG (human) [6] = target: RNF43-FLAG (human) (UniProt Q68DV7); test: co-IP; HEK T-REx 293 PRICKLE3 TetON cells transfected with RNF43-FLAG and EGFP-VANGL2, with or without overnight doxycycline induction of HA-PRICKLE3; Western blot, endogenous CK1ε quantified by densitometry
RNF43-FLAG (human) [7] = target: RNF43-FLAG (human) (UniProt Q68DV7); test: co-IP; HA-PRICKLE3 and FLAG-tagged RNF43 co-expressed in HEK293 wild-type cells (no VANGL2 transfected); IP with anti-HA or anti-FLAG; Western blot

binding [1]: binds | binding [2]: binds | binding [3]: binds
B1: VANGL1-myc (protein, UniProt Q8TAA9 1-524)
chain: MDTESTYSGYSYYSSHSKKSHRQGERTRERHKSPRNKDGRGSEKSVTIQPPTGEPLLGNDSTRTEEVQDDNWGETTTAITGTSEHSISQEDIARISKDMEDSVGLDCKRYLGLTVASFLGLLVFLTPIAFILLPPILWRDELEPCGTICEGLFISMAFKLLILLIGTWALFFRKRRADMPRVFVFRALLLVLIFLFVVSYWLFYGVRILDSRDRNYQGIVQYAVSLVDALLFIHYLAIVLLELRQLQPMFTLQVVRSTDGESRFYSLGHLSIQRAALVVLENYYKDFTIYNPNLLTASKFRAAKHMAGLKVYNVDGPSNNATGQSRAMIAAAARRRDSSHNELYYEEAEHERRVKKRKARLVVAVEEAFIHIQRLQAEEQQKAPGEVMDPREAAQAIFPSMARALQKYLRITRQQNYHSMESILQHLAFCITNGMTPKAFLERYLSAGPTLQYDKDRWLSTQWRLVSDEAVTNGLRDGIVFVLKCLDFSLVVNVKKIPFIILSEEFIDPKSHKFVLRLQSETSV

binding [4]: binds | binding [5]: binds
B2: VANGL1 (endogenous) (protein, UniProt Q8TAA9 1-524)
chain: MDTESTYSGYSYYSSHSKKSHRQGERTRERHKSPRNKDGRGSEKSVTIQPPTGEPLLGNDSTRTEEVQDDNWGETTTAITGTSEHSISQEDIARISKDMEDSVGLDCKRYLGLTVASFLGLLVFLTPIAFILLPPILWRDELEPCGTICEGLFISMAFKLLILLIGTWALFFRKRRADMPRVFVFRALLLVLIFLFVVSYWLFYGVRILDSRDRNYQGIVQYAVSLVDALLFIHYLAIVLLELRQLQPMFTLQVVRSTDGESRFYSLGHLSIQRAALVVLENYYKDFTIYNPNLLTASKFRAAKHMAGLKVYNVDGPSNNATGQSRAMIAAAARRRDSSHNELYYEEAEHERRVKKRKARLVVAVEEAFIHIQRLQAEEQQKAPGEVMDPREAAQAIFPSMARALQKYLRITRQQNYHSMESILQHLAFCITNGMTPKAFLERYLSAGPTLQYDKDRWLSTQWRLVSDEAVTNGLRDGIVFVLKCLDFSLVVNVKKIPFIILSEEFIDPKSHKFVLRLQSETSV

binding (RNF43-FLAG (human) [6]): binds | binding (RNF43-FLAG (human) [7]): binds
B3: HA-tagged PRICKLE3 (protein, UniProt O43900 1-615)
chain: MFARGSRRRRSGRAPPEAEDPDRGQPCNSCREQCPGFLLHGWRKICQHCKCPREEHAVHAVPVDLERIMCRLISDFQRHSISDDDSGCASEEYAWVPPGLKPEQVYQFFSCLPEDKVPYVNSPGEKYRIKQLLHQLPPHDSEAQYCTALEEEEKKELRAFSQQRKRENLGRGIVRIFPVTITGAICEECGKQIGGGDIAVFASRAGLGACWHPQCFVCTTCQELLVDLIYFYHVGKVYCGRHHAECLRPRCQACDEIIFSPECTEAEGRHWHMDHFCCFECEASLGGQRYVMRQSRPHCCACYEARHAEYCDGCGEHIGLDQGQMAYEGQHWHASDRCFCCSRCGRALLGRPFLPRRGLIFCSRACSLGSEPTAPGPSRRSWSAGPVTAPLAASTASFSAVKGASETTTKGTSTELAPATGPEEPSRFLRGAPHRHSMPELGLRSVPEPPPESPGQPNLRPDDSAFGRQSTPRVSFRDPLVSEGGPRRTLSAPPAQRRRPRSPPPRAPSRRRHHHHNHHHHHNRHPSRRRHYQCDAGSGSDSESCSSSPSSSSSESSEDDGFFLGERIPLPPHLCRPMPAQDTAMETFNSPSLSLPRDSRAGMPRQARDKNCIVA
